# Source: publication PMC7819943, “Rice protein-binding microarrays: a tool to detect cis-acting elements near promoter regions in rice”
# Sequences of proteins named here, by UniProt entry; tags and fusion partners are left off.
# UniProt Q0JBA9, entry or part of it: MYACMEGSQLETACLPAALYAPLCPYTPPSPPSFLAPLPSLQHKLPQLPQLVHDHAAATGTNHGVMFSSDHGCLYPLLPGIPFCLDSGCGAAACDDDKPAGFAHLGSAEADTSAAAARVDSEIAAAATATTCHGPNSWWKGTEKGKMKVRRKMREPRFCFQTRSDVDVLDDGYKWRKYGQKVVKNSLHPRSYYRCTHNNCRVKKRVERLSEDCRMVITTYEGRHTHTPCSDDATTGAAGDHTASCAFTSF
# The other results are listed elsewhere or left out.
# Biological target: OsWRKY34 (Oryza sativa, UniProt Q0JBA9 1-250)
# Assay: protein-binding microarray (RPBM); PBS, 2% BSA, 51.3 ng/ul salmon testes DNA, 50 uM zinc acetate, 200 nM TF, 25 C, 1 h; high values mean tight binding
# Settings: protein: recombinant; tags: N-terminal polyhistidine and DsRed monomer fusion (pET32a); label: CyDye5-dUTP incorporated in the synthesized complementary strand; 3' TTTTT single-stranded linker to array surface; dsDNA, one strand shown
# Summary of the method: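 In PBS with 2% BSA, salmon testes DNA and 50 µM zinc acetate, 200 nM protein was incubated on a custom Agilent array at 25 °C for 1 h and then washed off. The array had been made double-stranded by primer extension with Cy5-dUTP and blocked with 2% BSA. The proteins were transcription factors fused N-terminally to polyhistidine and DsRed, expressed in E. coli BL21-CodonPlus and purified on Ni–NTA. The binding signal is per-feature fluorescence intensity (arbitrary units) from an Axon 4000B scanner.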
row,Sequence,binding signal
1,GGGTTCATCAAGCTTGACTCTTGACAACTTGTCTCGTACTCGGAGTCACCTAGTGCAG,8580 fluorescence intensity (a.u.)
2,ACCTCCTGTTTGTTTATGGTTTCCCTAAATTTGCAAACGCCGGAGTCACCTAGTGCAG,8400 fluorescence intensity (a.u.)
3,CTGGTTGTTTGATGTTCGCTTATTCCCTTCTGAATTAACTCGGAGTCACCTAGTGCAG,8770 fluorescence intensity (a.u.)
4,GAATTTGTCTTTGCGTTTACAGCCGCTCCTTCAAGACCCACGGAGTCACCTAGTGCAG,8130 fluorescence intensity (a.u.)
5,TGATTCCTGTGTCAATTAGCACTAGCCACACACATATTTACGGAGTCACCTAGTGCAG,8980 fluorescence intensity (a.u.)
6,CGAGAGATCGTTGCCCTCCGTATCCACTACTACTACACTCCGGAGTCACCTAGTGCAG,8310 fluorescence intensity (a.u.)
7,TAACATGTAACACGAATCTGTACAAGCTCCTTATTCGTCGCGGAGTCACCTAGTGCAG,8890 fluorescence intensity (a.u.)
8,GAATTTTCACCCGCATCTGCCCTGACCCATCCCACCTCCACGGAGTCACCTAGTGCAG,9010 fluorescence intensity (a.u.)
9,CACCGTCGCGCACCTGTTTGAATCCCACTCGTGGGCCCCACGGAGTCACCTAGTGCAG,8410 fluorescence intensity (a.u.)
10,GTGTTGTCGTTGGAGTAGATGATGATTTTACTAGCTAGTTCGGAGTCACCTAGTGCAG,9210 fluorescence intensity (a.u.)
11,ACCTGGCTACAAATCTGTAGCCCACTTTCTTCTCTCTCTCCGGAGTCACCTAGTGCAG,8390 fluorescence intensity (a.u.)
12,TGCAGAACACTAGACATCACAGCCCAAGTCTTACCCACCACGGAGTCACCTAGTGCAG,8320 fluorescence intensity (a.u.)
13,CGCCTCTGTCCGTTCCGCCGTGGTTTGCGCCGCCCGTCCGCGGAGTCACCTAGTGCAG,9070 fluorescence intensity (a.u.)
14,ACTCCGTTCCGTTTAAACTCAACTAGTAGTACCCTTGTTGCGGAGTCACCTAGTGCAG,9570 fluorescence intensity (a.u.)
15,TTTGATTTTGGTCAAAGTCAAACTACTCTAAGTTTGACTACGGAGTCACCTAGTGCAG,13400 fluorescence intensity (a.u.)
16,TGTAAGTCTCTTTTGTGTCAAGATATCGCCTCCATGAATACGGAGTCACCTAGTGCAG,8170 fluorescence intensity (a.u.)
17,GGTGGTGGGGATCAGGAGGGACGCGGCGAGCCGCGAGCTGCGGAGTCACCTAGTGCAG,14100 fluorescence intensity (a.u.)
18,GTAATTATTAATTCTTTTCGTATCATTTGATTTATTGTTACGGAGTCACCTAGTGCAG,8800 fluorescence intensity (a.u.)
19,TCTCTTCCCGTCACCTACCTCTCCTTCTGATTTGGGCGCGCGGAGTCACCTAGTGCAG,9340 fluorescence intensity (a.u.)
20,TGAGTTTTTGTTTGCATTGTTTGACCACTCTTCTTATTCACGGAGTCACCTAGTGCAG,10700 fluorescence intensity (a.u.)
21,TTCTTCTTCTTCTTCTTCGGCGGCGGCGGCGGCGGCGATGCGGAGTCACCTAGTGCAG,10500 fluorescence intensity (a.u.)
22,GCCCAACCCGCCCGTGAGGTGACTCTGCCACTGGGTTTTTCGGAGTCACCTAGTGCAG,9540 fluorescence intensity (a.u.)
23,TGGTGTTGTTTATGTTCTCTATATCGATGAAAGATGTTAACGGAGTCACCTAGTGCAG,9980 fluorescence intensity (a.u.)
24,GCATGTCCTTTTTCCGATCGCAATATCCAAACGCTCCACTCGGAGTCACCTAGTGCAG,9390 fluorescence intensity (a.u.)
25,CTCACTTCAGCTCGCTCGCTCTCACTACTACTCGCTGGCACGGAGTCACCTAGTGCAG,9950 fluorescence intensity (a.u.)
26,CGTCTACCTCTAGCTCTCTGTGAGTTGCCATTAGGATTTTCGGAGTCACCTAGTGCAG,9570 fluorescence intensity (a.u.)
27,ATCTCTTCCCGTCTTTCTCGACAAATTTGGGATTATGCCACGGAGTCACCTAGTGCAG,8250 fluorescence intensity (a.u.)

# Shown tab-delimited: part of the list above
row	Sequence	binding signal
17	GGTGGTGGGGATCAGGAGGGACGCGGCGAGCCGCGAGCTGCGGAGTCACCTAGTGCAG	14100 fluorescence intensity (a.u.)
18	GTAATTATTAATTCTTTTCGTATCATTTGATTTATTGTTACGGAGTCACCTAGTGCAG	8800 fluorescence intensity (a.u.)
19	TCTCTTCCCGTCACCTACCTCTCCTTCTGATTTGGGCGCGCGGAGTCACCTAGTGCAG	9340 fluorescence intensity (a.u.)

# Next part:

row,Sequence,binding signal
1,GGGTACGACTTATCTGATGGTGAAATTTTCCTTTTTCTAACGGAGTCACCTAGTGCAG,8890 fluorescence intensity (a.u.)
2,GCTTCGAGGGGAGGGGCTCTAGCGGTTCTGGTTGAGGAAGCGGAGTCACCTAGTGCAG,12100 fluorescence intensity (a.u.)
3,AAAAATGTGGGAGGATGTATGTATGTGTGGAGGAGGGGTACGGAGTCACCTAGTGCAG,11200 fluorescence intensity (a.u.)
4,CCGCCTGCGTACGCCCATCTCCTCCACCCCACGCGCGAGCCGGAGTCACCTAGTGCAG,10500 fluorescence intensity (a.u.)
5,ATATTACCCTATCCTTTTTTTCCCAATAAAGTCTATGTCCCGGAGTCACCTAGTGCAG,8660 fluorescence intensity (a.u.)
6,CCTTGTATTCGGCCCGCACACGCCAACCTGTCCTGTTCTGCGGAGTCACCTAGTGCAG,9600 fluorescence intensity (a.u.)
7,TTATTGTGCTAGCTGCATGCTGTTTTTAATCATCGTAATTCGGAGTCACCTAGTGCAG,9780 fluorescence intensity (a.u.)
8,GGCGGGGCCTTCTTCGCGGTGGCGTCCCTTCTCAGGCGCGCGGAGTCACCTAGTGCAG,14300 fluorescence intensity (a.u.)
9,CTACTATCATATTTTTTAATAGATGACTCCGTTGACTTTTCGGAGTCACCTAGTGCAG,16800 fluorescence intensity (a.u.)
10,AATTTCATTAACACCACTTCAGGTTGGCAGGACATGCACTCGGAGTCACCTAGTGCAG,8250 fluorescence intensity (a.u.)
11,GGCTTTGATGTTTGGTTTCTGATTCCTGAGCTGTACCGATCGGAGTCACCTAGTGCAG,9190 fluorescence intensity (a.u.)
12,CTTCTTGGTTGCTGTATCAGAAATTCTGCTTCATTGTGTTCGGAGTCACCTAGTGCAG,8510 fluorescence intensity (a.u.)
13,CTTTTTTTTATTTGGTGCTCTTTGGAGATGTTGTGACAGTCGGAGTCACCTAGTGCAG,8190 fluorescence intensity (a.u.)
14,AACGATCTTTTCTCTATCCTTTTTTTCGCCGTCGTTAACTCGGAGTCACCTAGTGCAG,9920 fluorescence intensity (a.u.)
15,ATAGCCTGACTGGAATTCTTTCTGATTTTTTGTTCAAATTCGGAGTCACCTAGTGCAG,11100 fluorescence intensity (a.u.)
16,GCCCTCACGCCCGGCCGGCCACTCCGCCCCGCGCCGTCTGCGGAGTCACCTAGTGCAG,9840 fluorescence intensity (a.u.)
17,ACGAAAGTGGAGGGCAAGTTCGAAAGTGGAGGGCAATTAACGGAGTCACCTAGTGCAG,8280 fluorescence intensity (a.u.)
18,GGCTCGTCGGAGTAGGGGCGCTCGGGGTATGGGGCTCGGCCGGAGTCACCTAGTGCAG,20400 fluorescence intensity (a.u.)
19,GTTTGACTCTTGAGGAAGCTGCATCCTTTAGGCCTCTCATCGGAGTCACCTAGTGCAG,8860 fluorescence intensity (a.u.)
20,TCACATCACATCTCACTTTTTTTTTGGGGCTTCCTGGATTCGGAGTCACCTAGTGCAG,11600 fluorescence intensity (a.u.)
21,TACACTAACCCTACCATCCCGTACACCACCGAAACCCTAACGGAGTCACCTAGTGCAG,8330 fluorescence intensity (a.u.)
22,GTCAACTACAACATTTGACCGTCCGATTTTTTTTTTTTAGCGGAGTCACCTAGTGCAG,8060 fluorescence intensity (a.u.)
23,GGCGAGGGGCTCATGGCCGCCGCCTGAGGTGGGGTGGCGGCGGAGTCACCTAGTGCAG,8870 fluorescence intensity (a.u.)
24,ACTAATGAACTGCAGTGTGACTTTTTTTGTTAGCTCAGCACGGAGTCACCTAGTGCAG,8780 fluorescence intensity (a.u.)
25,CTATTCAATTTTAACTCATTGATCTCACATATTAGTTTTTCGGAGTCACCTAGTGCAG,8380 fluorescence intensity (a.u.)
26,CGATCTCTTCTCTTCATCTCCAGTGTAAAGCTTTTTTGACCGGAGTCACCTAGTGCAG,8020 fluorescence intensity (a.u.)
27,GCGCTGCACTGTTCCTCTGTCTGTCAGTCACTTGCGCTGTCGGAGTCACCTAGTGCAG,9720 fluorescence intensity (a.u.)
